Data from patent US20130202629A1, “USES OF PHOSPHOLIPID CONJUGATES OF SYNTHETIC TLR7 AGONISTS” (The Regents of the University of California, priority 2010, published 2013).
Some results were stated once for a whole list of compounds, not compound by compound. At least one structure is not confirmed: it was looked up by name or label, or the drawing left a doubt.

System: C57BL/6 mice
Test: In vivo kinetics of serum pro-inflammatory cytokine induction after intravenous injection
Set-up: species or system mouse
Details: i.v.; 200 nmol (4a 40 nmol) per animal
Description: The mice were intravenously injected with TLR7 agonists and their conjugates (40 nmol compound (4a) or 200 nmol SM and compounds (6), (8), or (9) per mouse). Blood samples were collected 2, 4, 6, 24 or 48 hours after injections. Sera were separated and kept at −20° C. until use. The levels of cytokines (e.g. IL-6 and TNF-α in the sera were measured by Luminex bead microassay, and the results presented in FIGS. 4A-B. Data are mean±SEM of five mice and are representative of two independent experiments. The minimum detection levels of IL-6 and TNF-α are 5 pg/mL and 10 pg/mL, respectively.
Cytokine induction by compounds (4a), (6), and (9), were sustained for up to 6 hours.

CCCCCCCC/C=C\CCCCCCCC(=O)OCC(COP(=O)(O)OCCNC(=O)c1ccc(Cn2c(=O)[nH]c3c(N)nc(OCCOC)nc32)cc1)OC(=O)CCCCCCC/C=C\CCCCCCCC (stereo not shown) [Compound 6, 2-(4-((6-amino-2-(2-methoxyethoxy)-8-oxo-7H-purin-9(8H)-yl)methyl)benzamido)ethyl 2,3-bis(oleoyloxy)propyl phosphate]
duration of sustained serum cytokine induction: up to 6 hours
